# Some of these results come from one statement about several compounds together.
# Tested on: BALB/c mice
# Experiment: ELISA for anti-peptide antibody response in sera of immunized BALB/c mice
# Assay type: in vivo
# Conditions: high molecular weight (multimer) forms
row,Sequence,anti-peptide antibody response (in words)
1,"SLKPCVKLTPLC [Peptide 112, gp160 CR-1, residues 121-133]",high antibody titers
2,"CVPTNPVPQEVV [Peptide 107, gp160 CR-1, residues 81-92]",high antibody titers
3,"EQMHEDIISLWDQ [Peptide 110, gp160 CR-1, residues 109-121]",high antibody titers
4,"VLENVTENFNM [Peptide 108, gp160 CR-1, residues 92-102]",high antibody titers
5,"NNMVEQMHEDII [Peptide 109, gp160 CR-1, residues 105-116]",high antibody titers
6,"FEPIPIHYCAFPGF [Peptide 114, gp160 CR-2, residues 215-228]",high antibody titers
7,"VQCTHGIRPVVSTQ [Peptide 117, gp160 CR-2, residues 250-263]",high antibody titers
8,"CRIKQIINMWQGVGKAMYA [Peptide 65, gp160 conserved region 3, residues 417-435; di-Cys polymeric form]",high antibody titers
9,"GVPVWKEATTLFC [Peptide 105, gp160 CR-1, residues 48-61]",high antibody titers
10,"AHKVWATHACV [Peptide 106, gp160 CR-1, residues 72-82]",high antibody titers
11,"KKFNGTGPCTN [Peptide 115, gp160 CR-2, residues 236-246]",high antibody titers

# — patent US20020151678A1, “Prophylaxis and therapy of acquired immunodeficiency syndrome” (Board of Regents, The University of Texas System., priority 1987, published 2002)
